In paper PMC9508122:
Results are given in words; binding and its absence hold for the method and conditions named. Binding seen in cells or lysates may run through a third protein. Binding can be weak; no strength is given. Where a sequence is shown, tags or fusion partners need not be part of it.

Biological target: T1, TIPE1-Flag, full-length TIPE1 (FL) (UniProt Q8WVP5)
T1 sequence: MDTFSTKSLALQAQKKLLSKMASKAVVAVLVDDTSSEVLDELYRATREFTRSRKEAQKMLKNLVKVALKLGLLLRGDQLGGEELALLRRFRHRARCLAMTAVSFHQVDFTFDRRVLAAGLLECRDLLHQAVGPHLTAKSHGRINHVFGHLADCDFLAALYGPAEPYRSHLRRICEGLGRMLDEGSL
Experiment: co-IP; HEK-293T cells transfected with Flag-tagged TIPE1 (or its truncations) and HA-tagged PRMT1 (full length or truncations), harvested 24 h after transfection; lysates with anti-HA or anti-Flag antibody, protein G agarose; western blot

Row | Substance | binding
1 | PRMT1 truncation Δ1 (HA tag) (domain or fragment) | binds
2 | PRMT1 truncation Δ2 (HA tag) (domain or fragment) | binds
3 | PRMT1 truncation Δ4 (HA tag) (domain or fragment) | binds
